Our source for the binding values is paper PMC6393987.

Experiment [1] addresses PB1 domain of NLP6 (GBD and AD fusion constructs of Fig. 1c) (Arabidopsis) (UniProt Q8RWY4). Description: two-hybrid; Y2H between PB1 domains as GBD (pGBT9) and AD (pGADT7) fusions; growth assay in S. cerevisiae AH109 on SD lacking Trp, Leu, His, Ade and colony-lift β-galactosidase assay in Y187.
In experiment [2] the target is T1, PB1 domain of NLP7 (GBD and AD fusion constructs of Fig. 1c) (Arabidopsis) (UniProt Q84TH9).
T1 sequence: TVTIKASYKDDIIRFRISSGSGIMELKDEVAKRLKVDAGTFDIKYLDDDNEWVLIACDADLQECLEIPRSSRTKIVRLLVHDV
Described as above.

Experiment [3] has as its target NLP7 (116–959) containing mutations in the PB1 domain (K867, D909, D911 and E913 replaced with alanine), carboxy-terminal GBD fusion (Arabidopsis) (UniProt Q84TH9). Description: two-hybrid; Y2H assay in yeast; PB1 domain of NLP7 (853–949) fused to AD as prey, NLP7 forms fused to carboxy-terminal GBD as bait.
Experiment [4] has as its target NLP7 lacking the amino terminus (amino acids 116–959), carboxy-terminal Gal4 DNA-binding domain fusion (Arabidopsis) (UniProt Q84TH9). Described as above.

These are yes or no findings as the source states them, for the method shown. Some results given as binding are weak or reduced against the parent protein; the word gives no strength. Where a sequence is shown, tags or fusion partners need not be part of it.

B1: PB1 domain of NLP6 (GBD and AD fusion constructs of Fig. 1c) (domain or fragment, UniProt Q8RWY4 741-823)
chain: LVSIKATYREDIIRFKISPESVSITELKQQVAKRLKLETAAFELKYLDDDREWVSVSCDADLSECLDTSAAKANTLRLSVHDV
Turning to B1, the binding entry in experiment [1] and in experiment [2] was “no binding” each time.

B2: PB1 domain of NLP7 (residues 853–949), Gal4 transactivation domain fusion (prey) (domain or fragment, UniProt Q84TH9 853-949)
chain: ACEPSGSEMRTVTIKASYKDDIIRFRISSGSGIMELKDEVAKRLKVDAGTFDIKYLDDDNEWVLIACDADLQECLEIPRSSRTKIVRLLVHDVTTNL
In the case of B2, the figures for the binding entry in experiment [3] and in experiment [4] were “no binding” and “binds”, respectively.
